Source: PubChem BioAssay AID248 (DTP/NCI, 2004)
The list does not hold the whole screen: it is rich in T/C values a quarter to a half above the control, in often repeated tests (any T/C) and in doses without a T/C. Further doses and runs are listed elsewhere. T/C gives the treated animals as a percentage of the vehicle group. Some entries give survivors of the animals treated and no T/C: the source files T/C as zero there, which appears to mark a toxic dose or a test without result, not a measured value. Some survivor counts are full or nearly so, which does not show that the dose was tolerated: survival well below the control is almost never listed, so the zero probably covers shortened survival too. Survivors were counted at the toxicity check, usually on the fifth day, unless a day is given; later deaths do not show. Schedule codes are those of the source, read here as Q, the interval in days (D) or hours (H), X, the number of doses. Some schedule codes hold Z or #, which are not explained here. Some entries were tested several times; the results are listed from low to high. Where survival is the endpoint, the PubChem record calls one and a half times the control and up active, and a quarter to a half above the control has no call in these data; cut-offs in other NCI protocols can differ. Some T/C values carry the count of animals alive at the toxicity check (mostly the fifth day); without a count, all were alive then.

Tested on: L1210 leukemia ip in BDF1 mice, survival T/C
Assay: NCI In Vivo Anticancer Drug Screen. Data for tumor model L1210 Leukemia (intraperitoneal) in B6D2F1 (BDF1) mice
Conditions: T/C endpoint: mean survival time, higher T/C = longer survival
[1] = dose: 200.0 mg/kg/injection, schedule: Q01DX001 (ip), vehicle: other
[2] = dose: 400.0 mg/kg/injection, schedule: Q01DX001 (ip), vehicle: other
[3] = dose: 100.0 mg/kg/injection, schedule: Q04DX003 (ip), vehicle: saline
[4] = dose: 200.0 mg/kg/injection, schedule: Q01DX001 (ip), vehicle: saline
[5] = dose: 400.0 mg/kg/injection, schedule: Q01DX001 (ip), vehicle: saline
[6] = dose: 400.0 mg/kg/injection, schedule: Q04DX003 (ip), vehicle: saline
[7] = dose: 200.0 mg/kg/injection, schedule: Q01DX009 (ip), vehicle: saline with Tween-80
[8] = dose: 400.0 mg/kg/injection, schedule: Q01DX009 (ip), vehicle: saline with Tween-80
[9] = dose: 75.0 mg/kg/injection, schedule: Q01DX001 (ip), vehicle: water
[10] = dose: 150.0 mg/kg/injection, schedule: Q01DX001 (ip), vehicle: water
[11] = dose: 225.0 mg/kg/injection, schedule: Q01DX001 (ip), vehicle: water
[12] = dose: 200.0 mg/kg/injection, schedule: Q04DX002 (ip), vehicle: Klucel (hydroxypropylcellulose) (HPC)
[13] = dose: 400.0 mg/kg/injection, schedule: Q04DX002 (ip), vehicle: Klucel (hydroxypropylcellulose) (HPC)
[14] = dose: 200.0 mg/kg/injection, schedule: Q04DX003 (ip), vehicle: saline
[15] = dose: 100.0 mg/kg/injection, schedule: Q01DX001 (ip), vehicle: saline
[16] = dose: 400.0 mg/kg/injection, schedule: Q04DX003 (ip), vehicle: saline with Tween-80

For COc1cc(C(=O)CCC(=O)O)c(OC)c(CBr)c1CBr, the survivor count (dose: 40.0 mg/kg/injection, schedule: Q01DX001 (ip), vehicle: other) was 3 of 6, the survivor count (dose: 80.0 mg/kg/injection, schedule: Q01DX001 (ip), vehicle: other) was 0 of 6 and the survivor count (dose: 100.0 mg/kg/injection, schedule: Q01DX001 (ip), vehicle: other) was 0 of 6. For the same molecule, the survivor count [1] was 0 of 6 and the survivor count [2] was 0 of 6.
In the case of c1ccc2c(c1)Sc1ccccc1N2CCCN1CCCC1, the survivor count [3] is reported as 3 of 6, the survivor count [4] is reported as 0 of 3 and 0 of 4 and the survivor count [5] is reported as 0 of 4.
With O=c1[nH]cc(S)c(=O)[nH]1 the survivor count (dose: 200.0 mg/kg/injection, schedule: Q01DX015 (ip), vehicle: carboxymethylcellulose (CMC)) was 3 of 6, the survivor count (dose: 400.0 mg/kg/injection, schedule: Q01DX001 (ip), vehicle: carboxymethylcellulose (CMC)) was 0 of 4 and the survivor count (dose: 400.0 mg/kg/injection, schedule: Q01DX015 (ip), vehicle: carboxymethylcellulose (CMC)) was 0 of 6. The survivor count (dose: 800.0 mg/kg/injection, schedule: Q01DX001 (ip), vehicle: carboxymethylcellulose (CMC)) was 0 of 4, the survivor count (dose: 800.0 mg/kg/injection, schedule: Q01DX015 (ip), vehicle: carboxymethylcellulose (CMC)) was 0 of 6 and the survivor count (dose: 1600.0 mg/kg/injection, schedule: Q01DX001 (ip), vehicle: carboxymethylcellulose (CMC)) was 0 of 4.
CN=C1N[N+]2=C(C)CCCC2S1 (stereo unspecified) was tested, and the survivor count [6] was 0 of 4.
In the case of CCC(C)C(C#N)(CCN1CCCCC1)Cc1cccc2ccccc12 (stereo unspecified), the survivor count [7] is reported as 6 of 6 and the survivor count [8] is reported as 0 of 6.
O=C(Nc1ccc(C2=NCCN2)cc1)N1CCN(C(=O)Nc2ccc(C3=NCCN3)cc2)CC1 was tested, and the survivor count (dose: 62.5 mg/kg/injection, schedule: Q01DX Z (ip), vehicle: water) was 1 of 6, the T/C [9] was 141 and 160 % of control [9 of 10 alive] and the survivor count [9] was 3 of 10 and 4 of 10. The survivor count (dose: 125.0 mg/kg/injection, schedule: Q01DX Z (ip), vehicle: water) was 1 of 6, the T/C [10] was 205 % of control [8 of 10 alive] and the survivor count [10] was 0 of 10, 5 of 10, 6 of 10. The T/C [11] was 196 [8 of 10 alive], 238, 252 % of control, the survivor count [11] was 6 of 10 and the survivor count (dose: 500.0 mg/kg/injection, schedule: Q01DX Z (ip), vehicle: water) was 6 of 6.
For CP(C)(=S)P(C)(C)=S, the survivor count [12] was 1 of 3 and the survivor count [13] was 1 of 3.
COC(=O)c1[nH]ncc1N=NN(C)C was tested, and the survivor count (dose: 600.0 mg/kg/injection, schedule: Q01DX001 (ip), vehicle: carboxymethylcellulose (CMC)) was 2 of 6.
In the case of NCCCC1C(CN)C2CC1C1C3CCC(C3)C21 (stereo unspecified), the survivor count (dose: 50.0 mg/kg/injection, schedule: Q04DX003 (ip), vehicle: saline) is reported as 3 of 6, the survivor count [3] is reported as 2 of 6 and the survivor count [14] is reported as 0 of 6. The survivor count [6] was 0 of 6.
With O=S(c1ccccc1)C1CCCCC1O (stereo unspecified) the survivor count (dose: 400.0 mg/kg/injection, schedule: Q04DX002 (ip), vehicle: saline with Tween-80) was 3 of 3.
With CCO/C=N/c1oc(-c2ccccc2)nc1C#N the survivor count [13] was 1 of 3.
With CC(=O)NC1CCCC(C)N1 (stereo unspecified) the survivor count [5] was 0 of 6.
With Oc1ccc2ccccc2c1/C=N/N=C/c1c(O)ccc2ccccc12 the survivor count (dose: 75.0 mg/kg/injection, schedule: Q01DX009 (ip), vehicle: Klucel (hydroxypropylcellulose) (HPC)) was 6 of 6 and the survivor count (dose: 150.0 mg/kg/injection, schedule: Q01DX009 (ip), vehicle: Klucel (hydroxypropylcellulose) (HPC)) was 6 of 6.
With CC(C)(N)CO[C@H]1C[C@H]2CC[C@@]1(C)C2(C)C the survivor count [15] was 1 of 4, the survivor count [4] was 0 of 4 and the survivor count [5] was 0 of 4.
With OC1CN(C2CCCCC2)C1 the survivor count [14] was 1 of 6 and the survivor count [6] was 0 of 6.
For CCC(C)C(CN)(CCN1CCCCC1)Cc1cccc2ccccc12 (stereo unspecified), the survivor count (dose: 100.0 mg/kg/injection, schedule: Q04DX003 (ip), vehicle: saline with Tween-80) was 4 of 6, the survivor count (dose: 200.0 mg/kg/injection, schedule: Q04DX003 (ip), vehicle: saline with Tween-80) was 0 of 6 and the survivor count [16] was 0 of 6.
With CCc1nc2nnnn2c(CC)c1-c1ccccc1O the survivor count (dose: 100.0 mg/kg/injection, schedule: Q04DX002 (ip), vehicle: Klucel (hydroxypropylcellulose) (HPC)) was 3 of 3, the survivor count [12] was 3 of 3 and the survivor count [13] was 3 of 3.
For COc1ccc2nc3cc(Cl)ccc3c(NCCC[N+](C)(C)CCCCCCCCCC[N+](C)(C)CCCNc3c4ccc(Cl)cc4nc4ccc(OC)cc34)c2c1, the survivor count (dose: 100.0 mg/kg/injection, schedule: Q01DX009 (ip), vehicle: saline with Tween-80) was 0 of 6, the survivor count [7] was 0 of 6 and the survivor count [8] was 0 of 6.
CCCC1([N+]2(C)CCCC2)CS(=O)C1CC (stereo unspecified) was tested, and the survivor count [6] was 1 of 6.
In the case of N=C1c2ccccc2-c2ccccc21, the survivor count [16] is reported as 0 of 6.
In the case of COC(=O)c1nc[nH]c1N=[N+]=[N-], the survivor count [1] is reported as 1 of 4 and the survivor count [2] is reported as 0 of 4.
With CCN(CC[n+]1ccccc1)c1ccccc1 (tested in a mixture with another compound) the survivor count [15] was 0 of 4, the survivor count [4] was 0 of 4 and the survivor count [5] was 0 of 4.
For O=C(CCBr)N1CCCN(C(=O)CCBr)CC1, the T/C (dose: 240.0 mg/kg/injection, schedule: Q01DX Z (ip), vehicle: carboxymethylcellulose (CMC)) was 127 % of control, the survivor count (dose: 360.0 mg/kg/injection, schedule: Q01DX Z (ip), vehicle: carboxymethylcellulose (CMC)) was 6 of 6 and the survivor count (dose: 540.0 mg/kg/injection, schedule: Q01DX Z (ip), vehicle: carboxymethylcellulose (CMC)) was 3 of 6.
With CC1=C2CC3CCC(C)C2(CC1)C3(C)C (stereo unspecified) the survivor count (dose: 200.0 mg/kg/injection, schedule: Q01DX009 (ip), vehicle: saline) was 6 of 6.
Cc1cccc(SC(=O)Cc2ccc([N+](=O)[O-])cc2)c1 was tested, and the survivor count [8] was 2 of 6.
With CCOC(=O)CC1C(C)C(C)NC(C)C1C (stereo unspecified) the survivor count (dose: 300.0 mg/kg/injection, schedule: Q01DX001 (ip), vehicle: saline) was 2 of 6.
With O=c1oc(-c2cc([N+](=O)[O-])ccc2Cl)nc2ccccc12 the survivor count [16] was 6 of 6.
